Measurements taken from article PMC6437461, “Histone deacetylase inhibitory and cytotoxic activities of the constituents from the roots of three species of Ferula” (Iranian Journal of Basic Medical Sciences, 2019).

Columns and labels:
Assay type in all cases: cell-based
A549 cells = test: AlamarBlue cytotoxicity assay, A549; settings: Homo sapiens, 48 hr treatment
Method: (§1) Cervical (HeLa), ovarian (A2780), and lung (A549) cancer cells, obtained from Biotechnology Laboratory stocks, Biotechnology Research Center (Mashhad, Iran) and colon (HCT116) obtained from National Cell Bank of Iran (NCBI), Pasteur Institute of Iran, Tehran (Iran).
(§2) In vitro cytotoxicity tests were performed using a nonfluorescent substrate, AlamarBlue® (Paisely, UK) cell viability assay as described with some modifications (16). […] After counting, the cells were seeded in 96-well microplates (1 × 10^4 cells/100 µl in each well) and cultivated for 24 hr before addition of test compounds. Triplicate plates for three wells of each concentration were seeded. […] Thereafter, 10 μl of AlamarBlue® reagent was added and incubated for another 4 hr. Then, absorbance was measured at 600 nm using an ELISA microplate reader (Epoch; USA). IC50 values were calculated by nonlinear regression analysis using GraphPad prism (Version 6.0) software.

A2780 cells = test: AlamarBlue cytotoxicity assay, A2780; settings: Homo sapiens, 48 hr treatment
Method: as §1, §2

HCT116 cells = test: AlamarBlue cytotoxicity assay, HCT116; settings: Homo sapiens, HCT-116, 48 hr treatment
Method: as §1, §2

HeLa cells = test: AlamarBlue cytotoxicity assay, HeLa; settings: Homo sapiens, 48 hr treatment
Method: as §1, §2

`O=C(CCCCCCC(=O)Nc1ccccc1)NO` [Vorinostat, reference compound] gave an IC50 (A549 cells) of 6.83 ± 6.6 µM, an IC50 (A2780 cells) of 8.02 ± 9.8 µM and an IC50 (HCT116 cells) of 2.98 ± 1.02 µM. It also gave an IC50 (HeLa cells) of 2.43 ± 5.02 µM.
